This passage reports T/C and survivor count results from PubChem BioAssay AID192 (DTP/NCI, 2004).

This experiment has as its system BDF1 mice, B16 melanoma ip, median survival T/C. Kind of experiment: NCI In Vivo Anticancer Drug Screen. Data for tumor model B16 Melanoma (intraperitoneal) in B6D2F1 (BDF1) mice. The conditions noted are these: T/C endpoint: median survival time, higher T/C = longer survival. As to the method:
The antitumor activity of compounds was measured in mice bearing transplantable tumors. Survival or tumor size were measured and the results are expressed as the measurement made in the treated group (T) divided by the measurement made in the vehicle treated control group (C). The tumor model used in this assay is B16 Melanoma (intraperitoneal) in B6D2F1 (BDF1) mice

Where [1] appears, read: dose: 50.0 mg/kg/injection, schedule: Q04DX003 (ip), vehicle: Klucel (hydroxypropylcellulose) (HPC).
[2] abbreviates: dose: 200.0 mg/kg/injection, schedule: Q04DX003 (ip), vehicle: Klucel (hydroxypropylcellulose) (HPC).
The mark [3] stands for this setting: dose: 50.0 mg/kg/injection, schedule: Q01DX009 (ip), vehicle: saline.
[4] abbreviates: dose: 100.0 mg/kg/injection, schedule: Q01DX009 (ip), vehicle: saline.
Setting [5] is: dose: 0.12 mg/kg/injection, schedule: Q01DX009 (ip), vehicle: saline + alcohol.
Setting [6] is: dose: 0.25 mg/kg/injection, schedule: Q01DX009 (ip), vehicle: saline + alcohol.
[7] abbreviates: dose: 2.0 mg/kg/injection, schedule: Q01DX009 (ip), vehicle: saline + alcohol.
The mark [8] stands for this setting: dose: 400.0 mg/kg/injection, schedule: Q01DX009 (ip), vehicle: Klucel (hydroxypropylcellulose) (HPC).
Setting [9] is: dose: 200.0 mg/kg/injection, schedule: Q01DX009 (ip), vehicle: Klucel (hydroxypropylcellulose) (HPC).
The mark [10] stands for this setting: dose: 400.0 mg/kg/injection, schedule: Q01DX009 (ip), vehicle: saline with Tween-80.
Where [11] appears, read: dose: 8.0 mg/kg/injection, schedule: Q01DX009 (ip), vehicle: saline with Tween-80.

The list does not hold the whole screen: it is rich in T/C values a quarter to a half above the control, in often repeated tests (any T/C) and in doses without a T/C. Other doses and runs of a compound stand elsewhere. T/C is the treated group as % of the vehicle group. Some entries give survivors of the animals treated and no T/C: the source holds a T/C of zero for them, seemingly a mark for toxic or unscored doses. Some survivor counts are full or nearly so, which does not show that the dose was tolerated: survival well below the control is almost never listed, so the zero probably covers shortened survival too. Counts of survivors are from the toxicity check (mostly the fifth day) where no day follows; animals may have died later. Schedules are NCI's codes, taken here to give the interval after Q, in days (D) or hours (H), and the number of doses after X. Some structures stand for samples that the source files as different forms (salt, stereo form or complex); doses refer to the form tested. For survival time, this PubChem deposit counts one and a half times the control or more as active, and values a quarter to a half above the control carry no call in these data; other NCI protocols may use other cut-offs. Some entries hold several experiments; their values stand side by side, smallest first.

Consider `CN(CCO)/N=N/c1nc[nH]c1C(N)=O`, for which the T/C (dose: 100.0 mg/kg/injection, schedule: Q01DX009 (ip), vehicle: carboxymethylcellulose (CMC)) was 135 % of control. Further, the survivor count is 5 of 6 (dose: 200.0 mg/kg/injection, schedule: Q01DX009 (ip), vehicle: carboxymethylcellulose (CMC)); 5 of 6 (dose: 400.0 mg/kg/injection, schedule: Q01DX009 (ip), vehicle: carboxymethylcellulose (CMC)); 2 of 6 (dose: 800.0 mg/kg/injection, schedule: Q01DX009 (ip), vehicle: carboxymethylcellulose (CMC)).

`COc1ccc(S(=O)O)cc1NC(C)=O`: the survivor count under setting [1] is given as 9 of 10 and the survivor count under setting [2] was 10 of 10.

With `CC(CN1CCN(CCOCCO)CC1)CN1c2ccccc2Sc2ccccc21` (stereo not drawn), the survivor count is reported as 10 of 10 (dose: 12.5 mg/kg/injection, schedule: Q01DX009 (ip), vehicle: saline); 7 of 10 under setting [3]; 0 of 10 under setting [4]; 0 of 10 (dose: 200.0 mg/kg/injection, schedule: Q01DX009 (ip), vehicle: saline); 0 of 10 (dose: 400.0 mg/kg/injection, schedule: Q01DX009 (ip), vehicle: saline).

With `COc1cc2c[n+](C)c3c4cc5c(cc4ccc3c2cc1OC)OCO5` (tested in a mixture with another compound), the T/C reads like this: (dose: 3.13 mg/kg/injection, schedule: Q01DX009 (ip), vehicle: Klucel (hydroxypropylcellulose) (HPC)) 126 % of control; (dose: 6.25 mg/kg/injection, schedule: Q01DX009 (ip), vehicle: Klucel (hydroxypropylcellulose) (HPC)) 141 % of control; (dose: 6.25 mg/kg/injection, schedule: Q01DX009 (ip), vehicle: distilled water + Tween-80) 132 % of control; (dose: 10.0 mg/kg/injection, schedule: Q01DX009 (ip), vehicle: saline) 130 % of control; (dose: 12.5 mg/kg/injection, schedule: Q01DX009 (ip), vehicle: Klucel (hydroxypropylcellulose) (HPC)) 131 % of control; (dose: 20.0 mg/kg/injection, schedule: Q01DX009 (ip), vehicle: saline) 142 % of control. Also, the T/C (dose: 25.0 mg/kg/injection, schedule: Q01DX009 (ip), vehicle: Klucel (hydroxypropylcellulose) (HPC)) is 141 % of control. For the same compound, the survivor count (dose: 100.0 mg/kg/injection, schedule: Q01DX009 (ip), vehicle: Klucel (hydroxypropylcellulose) (HPC)) is listed as 10 of 10.

Take `[Cl][Pd]([Cl])([Cl])[Cl]`: the survivor count is, setting by setting: (dose: 25.0 mg/kg/injection, schedule: Q01DX009 (ip), vehicle: saline) 10 of 10; under setting [3], 10 of 10; under setting [4], 3 of 10.

On to `CCCCCCC(O)CCCC` (stereo not drawn), for which the survivor count (dose: 400.0 mg/kg/injection, schedule: Q01DX009 (ip), vehicle: other) is listed as 8 of 10.

Turning to `C=C1C(O)C2(O)OCC34C(CC5C(C)=CC(=O)C(O)C5(C)C23)OC(=O)C(OC(=O)C(C)(O)CC)C14` (stereo not drawn), the T/C by setting is: under setting [5], 127 % of control; under setting [6], 149 % of control; (dose: 0.5 mg/kg/injection, schedule: Q01DX009 (ip), vehicle: saline + alcohol) 140 % of control. Moreover, under setting [7], the survivor count is on record as 2 of 10.

Take `CS(=O)(=O)Nc1ccc(C(=O)O)cc1`: under setting [8], the survivor count is recorded as 10 of 10.

Consider `O=C(/C=C/C(=O)Oc1c(Cl)c(Cl)c(Cl)c(Cl)c1Cl)Oc1c(Cl)c(Cl)c(Cl)c(Cl)c1Cl`, for which the survivor count runs as follows: under setting [9], 9 of 10; under setting [8], 10 of 10.

For `O=S1(=O)CC(Cl)(Br)C1` (tested in a mixture with another compound), the survivor count runs as follows: under setting [9], 2 of 10; under setting [8], 0 of 10.

For `CCCCCCCCCCCCNC(=O)Nc1cc(C)ccc1C`, the survivor count under setting [8] is on record as 10 of 10.

Regarding `O=C1NC(=O)/C(=C/C=C/c2ccccc2)S1`, the survivor count was 10 of 10 (dose: 200.0 mg/kg/injection, schedule: Q01DX009 (ip), vehicle: saline with Tween-80) and 9 of 9 under setting [10].

Take `Cc1cc(NCCN(C(C)C)C(C)C)nc(/N=C(\N)Nc2ccc(Cl)c(C(F)(F)F)c2)n1`: the survivor count (dose: 20.0 mg/kg/injection, schedule: Q01DX009 (ip), vehicle: Klucel (hydroxypropylcellulose) (HPC)) was 10 of 10; the survivor count (dose: 40.0 mg/kg/injection, schedule: Q01DX009 (ip), vehicle: Klucel (hydroxypropylcellulose) (HPC)) is listed as 9 of 10; the survivor count (dose: 80.0 mg/kg/injection, schedule: Q01DX009 (ip), vehicle: Klucel (hydroxypropylcellulose) (HPC)) is 8 of 10.

On to `Cc1cc(C)c(NC(=O)Nc2ccccc2C)c(C)c1`, for which the survivor count is 10 of 10 under setting [2] and 9 of 10 (dose: 400.0 mg/kg/injection, schedule: Q04DX003 (ip), vehicle: Klucel (hydroxypropylcellulose) (HPC)).

Take `CCCCCc1cc(/C=C2/N=C(c3ccc[nH]3)C=C2OC)[nH]c1C`: the survivor count under setting [11] is listed as 10 of 10.

On to `COC(=O)[C@@]12OC[C@]34[C@H]([C@@H](O)[C@@H]1O)[C@@]1(C)CC(=O)C(O)=C(C)[C@@H]1C[C@H]3OC(=O)[C@H](OC(=O)/C=C(\C)C(C)C)[C@@H]24`, for which the T/C reads like this: (dose: 0.06 mg/kg/injection, schedule: Q01DX009 (ip), vehicle: saline + alcohol) 132 and 138 % of control; under setting [5], 147 % of control; under setting [6], 148 % of control; (dose: 63.0 micrograms/kg/injection, schedule: Q01DX009 (ip), vehicle: saline + alcohol) 145 % of control. In addition, the survivor count reads like this: (dose: 2.0 mg/kg/injection, schedule: Q01DX009 (ip), vehicle: other) 7 of 10; under setting [7], 6 of 10; (dose: 4.0 mg/kg/injection, schedule: Q01DX009 (ip), vehicle: other) 0 of 10.

Take `CNc1nc2c(N)ncnc2n1C1OC(CO)C(O)C1O` (stereo not drawn): the survivor count under setting [3] was 5 of 10.

Regarding `c1ccc(-c2csc3c4ccccc4c4ccccc4[n+]23)cc1`, the survivor count runs as follows: (dose: 4.0 mg/kg/injection, schedule: Q01DX009 (ip), vehicle: saline with Tween-80) 3 of 6; under setting [11], 0 of 6.

For `CC1(C)SC(C(NC(=O)Cc2ccccc2)C(=O)O)NC1C(=O)O` (stereo not drawn), the survivor count under setting [10] is 10 of 10.

Regarding `O=C1C=CC(=C(c2ccccc2)c2ccccc2)C=C1`, the survivor count under setting [1] was 6 of 10.
